Measurements published in US20220313774A1, “INTRANASAL ADMINISTRATION OF MEROTOCIN FOR IMPROVING LACTATION” (FERRING B.V., priority 2019, published 2022).
Part of at least one peptide drawing is inferred or uncertain, most often the ends. For at least one compound, name, drawing or mass did not settle the structure. *1 amine or outer side, *2 acyl side, *3 side chain or, on linkers, in order; H or OH if unused. Where a SMILES comes first, the peptide text is derived from it. Bridges are numbered along the chain shown (N, C = ends). [ ]: non-standard residue; d: D form. N(4-F-Bzl)Gly = O=C(O)CNCc1ccc(F)cc1; X1 = O=C(CCC[*:2])[*:1]

Tested on: ewes that were induced to deliver pre-term
Test: Effect of merotocin on milk production in pre-term sheep
Format: in vivo

For CC[C@H](C)[C@@H]1NC(=O)[C@H](Cc2ccc(O)cc2)NC(=O)CCCSC[C@@H](C(=O)N(CC(=O)N[C@@H](CC(C)C)C(=O)NCC(N)=O)Cc2ccc(F)cc2)NC(=O)[C@H](CC(N)=O)NC(=O)[C@H](CCC(N)=O)NC1=O [merotocin, Glycinamide, N-(4-mercapto-1-oxobutyl)-L-tyrosyl-L-isoleucyl-Lglutaminyl-L-asparaginyl-L-cysteinyl-N-[(4-fluorophenyl)methyl]glycyl-L-leucyl-, cyclic (1→5)-thioether] (YIQNC[N(4-F-Bzl)Gly]LG-NH2; linker N-5 via X1), the “increase of total milk yield over the treatment period” value (10 μg/animal i.m. twice daily for 14 days) was 27%, the “daily milk yield compared to the vehicle group” value (10 μg/animal i.m. twice daily, whole two weeks of treatment) was “only marginally greater” and the “increase of total milk yield over the treatment period” value (30 μg/animal i.m. twice daily for 14 days) was 62%. For the same compound, the “daily milk yield relative to vehicle” value (30 μg/animal i.m. twice daily, first week of treatment) was “increased daily milk yield” and the “lactose, protein, or fat content of the milk” value (10 and 30 μg/animal) was “No relevant changes”.
